Data as given in PubChem BioAssay AID1671195 (Yale University, 2021)
Shown is a random part of about 22,000 reagents. About 1,510 of them (6.9%) count as active. 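Active includes knockdowns raising or lowering LDL uptake; positive z-scores mean more uptake, negative mean less.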 Unmarked entries are inactive. No sequences are given here.

Screen: 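Knockdowns that increase or decrease uptake of fluorescent LDL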 (primary screen)
Cells: human Huh7 hepatoma cells
Knock-down reagent: siRNA pool against human genes, 18 nM
Duration: about 2 to 2.5 days of knockdown, then 8 h LDL uptake
Conditions: DiI-labelled LDL at 30 µg/ml for 8 h, in lipoprotein-deficient serum medium
Measurement: 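Fluorescent LDL signal imaged in cells, scaled to the plate median, robust z-score for each replicate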
Direction: robust z-score: higher = more LDL uptake after knockdown
Rule for the call: 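Active when two or more replicates show a robust z-score above 2 or below -2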

{"target": "LRRC8C-DT (LRRC8C divergent transcript)", "robust z-score, replicate 1": 1.48, "robust z-score, replicate 2": 1.22, "robust z-score, replicate 3": 1.6}
{"target": "ANGPTL8 (angiopoietin like 8)", "robust z-score, replicate 1": 1.59, "robust z-score, replicate 2": 0.5, "robust z-score, replicate 3": 1.57}
{"target": "SULT2A1 (sulfotransferase family 2A member 1)", "robust z-score, replicate 1": -0.35, "robust z-score, replicate 2": -0.463, "robust z-score, replicate 3": -0.428}
{"target": "GDNF (glial cell derived neurotrophic factor)", "robust z-score, replicate 1": 0.125, "robust z-score, replicate 2": -0.0212, "robust z-score, replicate 3": 0.0148}
{"target": "RNF220 (ring finger protein 220)", "robust z-score, replicate 1": -1.15, "robust z-score, replicate 2": -1.12, "robust z-score, replicate 3": 0.208}
{"target": "REG1A (regenerating family member 1 alpha)", "robust z-score, replicate 1": -2.17, "robust z-score, replicate 2": -1.14, "robust z-score, replicate 3": -1.38}
{"target": "LOC339351 (retired record)", "robust z-score, replicate 1": -1.04, "robust z-score, replicate 2": -1.18, "robust z-score, replicate 3": -1.03}
{"target": "NUMBL (NUMB like endocytic adaptor protein)", "robust z-score, replicate 1": -0.252, "robust z-score, replicate 2": -0.151, "robust z-score, replicate 3": -0.257}
{"target": "TIMM17BP1 (translocase of inner mitochondrial membrane 17B pseudogene 1)", "robust z-score, replicate 1": 0.256, "robust z-score, replicate 2": 0.503, "robust z-score, replicate 3": 0.715}
{"target": "LOC441888 (retired record)", "robust z-score, replicate 1": -1.25, "robust z-score, replicate 2": -1.42, "robust z-score, replicate 3": -1.19}
{"target": "LOC387950 (retired record)", "robust z-score, replicate 1": 0.573, "robust z-score, replicate 2": 0.679, "robust z-score, replicate 3": 0.707}
{"target": "AP1M2 (adaptor related protein complex 1 subunit mu 2)", "robust z-score, replicate 1": -0.361, "robust z-score, replicate 2": -1.15, "robust z-score, replicate 3": -1.45}
{"target": "GPSM1 (G protein signaling modulator 1)", "robust z-score, replicate 1": -0.342, "robust z-score, replicate 2": -0.451, "robust z-score, replicate 3": -0.298}
{"target": "SERPINA11 (serpin family A member 11)", "robust z-score, replicate 1": 0.483, "robust z-score, replicate 2": -0.52, "robust z-score, replicate 3": 0.429}
{"target": "CEACAM3 (CEA cell adhesion molecule 3)", "robust z-score, replicate 1": 0.973, "robust z-score, replicate 2": 1.07, "robust z-score, replicate 3": 2.04}
{"target": "H3C3 (H3 clustered histone 3)", "robust z-score, replicate 1": 1.73, "robust z-score, replicate 2": -0.246, "robust z-score, replicate 3": 0.562}

Limited to “robust z-score, replicate 3” (2 entries from above):
TIMM17BP1 (translocase of inner mitochondrial membrane 17B pseudogene 1) = 0.715
LOC441888 (retired record) = -1.19

Continued:
{"target": "ING2 (inhibitor of growth family member 2)", "robust z-score, replicate 1": 1.11, "robust z-score, replicate 2": 0.915, "robust z-score, replicate 3": 1.21}
{"target": "FAXC", "robust z-score, replicate 1": 0.381, "robust z-score, replicate 2": -0.343, "robust z-score, replicate 3": 0.464}
{"target": "CCN6 (cellular communication network factor 6)", "robust z-score, replicate 1": -1.15, "robust z-score, replicate 2": -0.947, "robust z-score, replicate 3": -2.42}
{"target": "LOC441158 (retired record)", "robust z-score, replicate 1": -0.0794, "robust z-score, replicate 2": -0.562, "robust z-score, replicate 3": -0.313}
{"target": "SURF4 (surfeit 4)", "robust z-score, replicate 1": "1.89 (active)", "robust z-score, replicate 2": 1.9, "robust z-score, replicate 3": 2.19}
{"target": "COL28A1 (collagen type XXVIII alpha 1 chain)", "robust z-score, replicate 1": 0.0663, "robust z-score, replicate 2": 0.554, "robust z-score, replicate 3": 0.56}
{"target": "SPATA8 (spermatogenesis associated 8)", "robust z-score, replicate 1": 1.54, "robust z-score, replicate 2": 1.04, "robust z-score, replicate 3": 1.97}
{"target": "H3C6 (H3 clustered histone 6)", "robust z-score, replicate 1": 2.2, "robust z-score, replicate 2": 0.301, "robust z-score, replicate 3": 1.67}
{"target": "SYF2 (SYF2 pre-mRNA splicing factor)", "robust z-score, replicate 1": -1.35, "robust z-score, replicate 2": -1.15, "robust z-score, replicate 3": -1.9}
{"target": "OXGR1 (oxoglutarate receptor 1)", "robust z-score, replicate 1": -0.426, "robust z-score, replicate 2": 0.13, "robust z-score, replicate 3": -0.289}
{"target": "CD200R1 (CD200 receptor 1)", "robust z-score, replicate 1": 1.87, "robust z-score, replicate 2": 2.05, "robust z-score, replicate 3": 1.73}
{"target": "PGP (phosphoglycolate phosphatase)", "robust z-score, replicate 1": 0.214, "robust z-score, replicate 2": -0.106, "robust z-score, replicate 3": 0.232}
{"target": "DUSP28 (dual specificity phosphatase 28)", "robust z-score, replicate 1": -0.683, "robust z-score, replicate 2": -0.436, "robust z-score, replicate 3": -0.3}
{"target": "NAT14 (N-acetyltransferase 14 (putative))", "robust z-score, replicate 1": 0.583, "robust z-score, replicate 2": 0.833, "robust z-score, replicate 3": 0.682}
